“And” between values parts separate entries of the source, which are not always exact repeats. Equal values may be shown once. The source gives many values for each of these; only a part stands here.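 48-hour exposure, single concentration, 96-well plates; percent growth endpoint where 0 means no net growth. Active: below 10.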
Test system: SNB-78
Test: NCI-60 one-dose screen, 48 h (100 = growth as untreated, 0 = no growth, -100 = all killed)
Conditions: 2.5 mM
Description: Growth inhibition of the SNB-78 human tumor cell line is measured as a screen for anti-cancer activity. Cells are grown in 96 well plates and exposed to the test compound for 48 hours. Compounds are tested at a single concentration, which is 10^-5 M for most compounds. The reported endpoint is percent growth (GI% or GIPRCNT), where numbers from 0 - 100% represent growth inhibition, and numbers from -100% - 0 represent cell death. For example, a value of 40 represents 60% growth inhibition. A value of 0 means no net growth occurred over the course of the experiment. A value of -40 indicates 40% of cells at the beginning of the experiment died by the end of the experiment. A value of -100 means all cells are dead at the end of the experiment.
NCI-60 Human Tumor Cell Lines Screen was performed using the standard one-dose NCI protocol, which is described in more detail at https://dtp.cancer.gov/discovery_development/nci-60/default.htm.
Compounds with GIPRCNT values below 10 were considered active. Activity score was based on GIPRCNT using the following formula: […]
Score is 0 for GIPRCNT values of 100 or above, 50 for GIPRCNT values of 0, and 100 for GIPRCNT values of -100.

O=c1[nH]cc(F)c(=O)[nH]1
growth: 48.3% and 35.2%
